Reference: article PMC6179184, “Interaction of the Warsaw breakage syndrome DNA helicase DDX11 with the replication fork-protection factor Timeless promotes sister chromatid cohesion” (PLoS Genetics, 2018)
These are yes or no findings as the source states them, for the method shown. In cells and extracts the contact can be indirect. Some entries that bind do so weakly or less than the wild type. Tags and fused reporters may be left off the sequences shown.

Amino acid sequences for entries named in this document (tags omitted).
UniProt Q9UNS1: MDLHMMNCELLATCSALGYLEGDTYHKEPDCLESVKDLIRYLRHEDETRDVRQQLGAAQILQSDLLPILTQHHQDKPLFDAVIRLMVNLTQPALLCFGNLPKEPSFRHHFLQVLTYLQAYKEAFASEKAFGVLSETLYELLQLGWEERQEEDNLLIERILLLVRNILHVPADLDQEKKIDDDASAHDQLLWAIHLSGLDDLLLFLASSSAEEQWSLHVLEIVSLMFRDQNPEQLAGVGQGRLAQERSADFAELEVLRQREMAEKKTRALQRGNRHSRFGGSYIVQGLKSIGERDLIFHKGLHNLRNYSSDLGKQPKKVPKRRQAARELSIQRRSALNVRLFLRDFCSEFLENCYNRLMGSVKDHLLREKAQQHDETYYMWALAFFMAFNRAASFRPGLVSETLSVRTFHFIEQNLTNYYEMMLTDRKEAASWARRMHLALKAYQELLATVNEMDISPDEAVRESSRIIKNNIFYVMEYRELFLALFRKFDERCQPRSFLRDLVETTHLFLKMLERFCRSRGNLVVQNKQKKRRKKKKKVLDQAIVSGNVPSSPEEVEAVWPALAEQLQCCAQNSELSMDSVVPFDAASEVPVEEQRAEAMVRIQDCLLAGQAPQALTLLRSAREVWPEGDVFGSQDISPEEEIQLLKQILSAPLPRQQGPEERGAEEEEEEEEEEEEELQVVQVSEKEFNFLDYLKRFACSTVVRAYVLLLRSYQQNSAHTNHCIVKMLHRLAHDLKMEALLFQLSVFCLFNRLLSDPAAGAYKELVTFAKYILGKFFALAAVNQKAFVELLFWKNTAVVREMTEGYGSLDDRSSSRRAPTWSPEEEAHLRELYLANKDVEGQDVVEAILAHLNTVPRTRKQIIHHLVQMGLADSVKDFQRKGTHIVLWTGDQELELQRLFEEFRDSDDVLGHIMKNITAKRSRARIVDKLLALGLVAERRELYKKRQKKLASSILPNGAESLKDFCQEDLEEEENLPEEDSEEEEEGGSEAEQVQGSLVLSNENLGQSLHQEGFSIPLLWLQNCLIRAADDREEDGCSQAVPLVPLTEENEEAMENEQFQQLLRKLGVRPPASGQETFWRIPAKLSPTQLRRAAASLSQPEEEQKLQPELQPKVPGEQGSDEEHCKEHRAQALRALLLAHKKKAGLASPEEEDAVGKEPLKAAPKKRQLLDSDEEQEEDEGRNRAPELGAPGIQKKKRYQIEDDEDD

Target: T1, DDX11-3xFlag wild type (human) (UniProt Q96FC9)
T1 sequence: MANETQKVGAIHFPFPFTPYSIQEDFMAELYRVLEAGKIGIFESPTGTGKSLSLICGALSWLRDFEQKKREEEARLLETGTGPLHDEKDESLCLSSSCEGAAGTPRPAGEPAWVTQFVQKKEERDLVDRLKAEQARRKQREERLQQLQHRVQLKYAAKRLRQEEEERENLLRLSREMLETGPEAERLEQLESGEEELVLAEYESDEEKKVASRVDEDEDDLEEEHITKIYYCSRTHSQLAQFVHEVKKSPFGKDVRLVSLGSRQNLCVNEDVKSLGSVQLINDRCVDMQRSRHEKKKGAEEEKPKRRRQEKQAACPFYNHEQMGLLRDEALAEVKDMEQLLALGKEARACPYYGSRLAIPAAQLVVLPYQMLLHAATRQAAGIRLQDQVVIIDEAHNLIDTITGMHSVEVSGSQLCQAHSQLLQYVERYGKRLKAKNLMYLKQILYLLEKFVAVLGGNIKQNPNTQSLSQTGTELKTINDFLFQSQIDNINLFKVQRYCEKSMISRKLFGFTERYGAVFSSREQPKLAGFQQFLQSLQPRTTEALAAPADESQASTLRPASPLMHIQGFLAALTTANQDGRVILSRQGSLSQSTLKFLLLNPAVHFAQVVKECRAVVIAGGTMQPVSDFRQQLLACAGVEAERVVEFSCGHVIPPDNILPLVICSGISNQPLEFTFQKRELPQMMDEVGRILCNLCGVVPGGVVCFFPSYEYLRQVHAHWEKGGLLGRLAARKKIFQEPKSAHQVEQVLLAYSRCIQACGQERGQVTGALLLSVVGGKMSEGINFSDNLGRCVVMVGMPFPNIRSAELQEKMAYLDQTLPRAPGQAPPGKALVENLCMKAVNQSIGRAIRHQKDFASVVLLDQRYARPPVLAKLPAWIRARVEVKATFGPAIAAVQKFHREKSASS
Test: co-IP; whole cell extracts of HEK 293T cells transiently expressing DDX11-3xFlag (wild type or mutants), anti-Flag M2 agarose beads, 50 mM Tris-HCl pH 8.0, 150 mM NaCl, 0.25% Triton X-100, 10% glycerol, 2 hr at 4 C, elution with Flag peptide; Western blot of endogenous partners

Question: With “endogenous Timeless (HEK 293T) (from UniProt Q9UNS1 1-1208)” as the substance, how does the binding read?
Answer: The binding was “binds”.
